The text below walks through data of PubChem BioAssay AID292 (DTP/NCI, 2004).

The test has as its system B6C3F1 mice, ip Sarcoma M5076, median survival T/C. As to the kind of experiment: NCI In Vivo Anticancer Drug Screen. Data for tumor model Sarcoma M5076 (intraperitoneal) in B6C3F1 mice. As to conditions: T/C endpoint: median survival time, schedule: Q04DX004 (ip), higher T/C = longer survival. In short, it runs like this: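 The readout is a ratio of survival in drug-treated animals to survival in animals given vehicle alone, taken in mice bearing a transplanted tumour line.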

The mark [1] stands for this setting: dose: 100.0 mg/kg/injection, vehicle: saline with Tween-80.
The mark [2] stands for this setting: dose: 200.0 mg/kg/injection, vehicle: saline with Tween-80.
Where [3] appears, read: dose: 800.0 mg/kg/injection, vehicle: saline with Tween-80.
Where [4] appears, read: dose: 40.0 mg/kg/injection, vehicle: saline.
The mark [5] stands for this setting: dose: 50.0 mg/kg/injection, vehicle: saline with Tween-80.
Where [6] appears, read: dose: 800.0 mg/kg/injection, vehicle: Klucel (hydroxypropylcellulose) (HPC).
Where [7] appears, read: dose: 150.0 mg/kg/injection, vehicle: saline with Tween-80.
[8] abbreviates: dose: 300.0 mg/kg/injection, vehicle: saline with Tween-80.
[9] abbreviates: dose: 100.0 mg/kg/injection, vehicle: suspension in saline.
Setting [10] is: dose: 200.0 mg/kg/injection, vehicle: suspension in saline.
[11] abbreviates: dose: 400.0 mg/kg/injection, vehicle: saline with Tween-80.

The list shows only some results of the screen, not a fair sample: it gathers tests that were run many times, whatever their T/C, doses with no T/C, and many T/C values between a quarter and a half above the control. Further doses and runs are listed elsewhere. T/C is the treated group as % of the vehicle group. Some doses have a count of surviving animals in place of a T/C: the source holds a T/C of zero for them, seemingly a mark for toxic or unscored doses. Some survivor counts are full or nearly so, which does not show that the dose was tolerated: survival well below the control is almost never listed, so the zero probably covers shortened survival too. Survivors were counted at the toxicity check, usually on the fifth day, unless a day is given; later deaths do not show. Schedules are NCI's codes, taken here to give the interval after Q, in days (D) or hours (H), and the number of doses after X. Some entries hold several experiments; the results are listed from low to high. Where survival is the endpoint, this PubChem deposit counts one and a half times the control or more as active, and values a quarter to a half above the control carry no call in these data; other NCI protocols may use other cut-offs. Some T/C values carry the count of animals alive at the toxicity check (mostly the fifth day); without a count, all were alive then.

For the compound `C/C(=N\Nc1cc(C)nc2ccc(C)cc12)c1cn(C)n(-c2ccccc2)c1=O`, the survivor count runs as follows: (dose: 62.5 mg/kg/injection, vehicle: Klucel (hydroxypropylcellulose) (HPC)) 10 of 10 on day 14; (dose: 125.0 mg/kg/injection, vehicle: Klucel (hydroxypropylcellulose) (HPC)) 10 of 10 on day 14; (dose: 250.0 mg/kg/injection, vehicle: Klucel (hydroxypropylcellulose) (HPC)) 10 of 10 on day 14; (dose: 500.0 mg/kg/injection, vehicle: Klucel (hydroxypropylcellulose) (HPC)) 6 of 10 on day 14.

Regarding `CC(=O)/C(=C\c1ccc(/C=C(\C(C)=O)C(=O)CCN(C)C)cc1)C(=O)CCN(C)C`, the survivor count reads like this: under setting [1], 8 of 8 on day 14; under setting [2], 8 of 8 on day 14; under setting [3], 2 of 7 on day 14.

`CC(=O)c1cccc(NC2C(N)C(NC(=O)N(C)C)(C(C)O)C(C)(O)C2(O)COC(=O)c2c(C)cccc2O)c1` (stereo unspecified): for the setting “dose: 20.0 mg/kg/injection, vehicle: saline”, the T/C was 145 % of control. Besides, under setting [4], the T/C was 134 % of control and the survivor count is 0 of 10 on day 14.

Take `Cc1ccc(C(=O)[O][Hg][CH2]C2COC([CH2][Hg][O]C(=O)c3ccc(C)cc3)CO2)cc1` (stereo unspecified): the survivor count was 9 of 10 on day 14 under setting [5] and 9 of 10 on day 14 under setting [1].

Regarding `Cc1cc(C(F)(F)F)nc2nc3ccccc3n12`, the survivor count (dose: 600.0 mg/kg/injection, vehicle: Klucel (hydroxypropylcellulose) (HPC)) is 9 of 10 on day 14.

Turning to `CCOC(=O)/C=C1/SC(N2CCCCC2)C(=O)N1CC` (stereo unspecified), under setting [6], the survivor count is 0 of 10 on day 14.

For `Nc1ncnc2c1c1c(=O)[nH]c(=O)[nH]c1n2C1OC(CO)C(O)C1O` (stereo unspecified), the T/C (dose: 400.0 mg/kg/injection, vehicle: distilled water + Tween-80) is 133 % of control. Besides, where the note is “dose: 800.0 mg/kg/injection, vehicle: distilled water + Tween-80”, the survivor count was 2 of 10 on day 14 and 4 of 10 on day 14.

As to `COc1ccc2[nH]c3ccc4cc[n+](CCN5CCC(C6CCN(CC[n+]7ccc8ccc9[nH]c%10ccc(OC)cc%10c9c8c7)CC6)CC5)cc4c3c2c1`, the T/C reads like this: (dose: 4.0 mg/kg/injection, vehicle: water) 134 % of control; (dose: 8.0 mg/kg/injection, vehicle: water) 148 % of control. The survivor count (dose: 64.0 mg/kg/injection, vehicle: water) was 6 of 10 on day 14.

Regarding `Cc1cc(O)c2c(c1O)C(=O)C13C(=C2O)C(=O)C2C(O)C1C1C(O)C3C(=O)C3=C(O)c4c(O)cc(C)c(O)c4C(=O)C321` (stereo unspecified), the survivor count (dose: 25.0 mg/kg/injection, vehicle: saline with Tween-80) is given as 0 of 10 on day 14.

In the case of `O=C1CCCCCC2=NC12` (stereo unspecified), where the note is “dose: 200.0 mg/kg/injection, vehicle: Klucel (hydroxypropylcellulose) (HPC)”, the survivor count was 0 of 10 on day 14.

For the compound `CC1=C[P+](c2ccccc2)(c2ccccc2)C=C(c2ccccc2)O1`, the T/C (dose: 2.5 mg/kg/injection, vehicle: saline + alcohol) is 130 % of control. In addition, the survivor count (dose: 20.0 mg/kg/injection, vehicle: saline + alcohol) is listed as 0 of 10 on day 14.

In the case of `COCCCn1c(C(Cl)(Cl)Cl)nn2c(=O)c3ccccc3nc2c1=O`, the survivor count under setting [3] is 10 of 10 on day 14.

`N#CC(=C1C=CC(=NO)C=C1)c1ccc(Cl)cc1`: the survivor count is 10 of 10 on day 14 (dose: 37.5 mg/kg/injection, vehicle: saline with Tween-80); 10 of 10 on day 14 (dose: 75.0 mg/kg/injection, vehicle: saline with Tween-80); 10 of 10 on day 14 under setting [7]; 8 of 10 on day 14 under setting [8].

`CC1OC(O[C@H]2/C=C/C=C/C=C/C=C/C=C/C=C/C=C/[C@H](C)[C@@H](O)[C@@H](C)[C@H](C)OC(=O)C[C@H](O)C[C@H](O)CC[C@@H](O)[C@H](O)C[C@H](O)C[C@]3(O)C[C@H](O)[C@@H](C(=O)O)[C@H](C2)O3)C(O)C(N)C1O` (stereo partly specified): the survivor count under setting [9] was 0 of 10 on day 14 and the survivor count under setting [10] was 0 of 10 on day 14.

As for `CCOC(=O)c1cc(-c2ccccc2)c(=O)c(OC)nc1-c1ccccc1`, under setting [8], the survivor count is 2 of 10 on day 14.

With `COc1oc(C2C/C(=C/C(C)=C/C(C)=C/C(C)=C/c3ccc([N+](=O)[O-])cc3)CO2)c(C)c(=O)c1C` (stereo unspecified), the survivor count (dose: 16.0 mg/kg/injection, vehicle: saline) is given as 0 of 10 on day 14 and the survivor count (dose: 32.0 mg/kg/injection, vehicle: saline) is given as 0 of 10 on day 14.

On to `O=C1CC2(C(=O)N1CN1CCOCC1)c1ccccc1-c1ccccc12`, for which the survivor count is given as 0 of 10 on day 14 under setting [6] and 0 of 10 on day 14 (dose: 1600.0 mg/kg/injection, vehicle: Klucel (hydroxypropylcellulose) (HPC)).

Turning to `COc1ccc(C=C(C(=O)CCN(C)C)C(=O)CCN(C)C)cc1`, the survivor count (dose: 400.0 mg/kg/injection, vehicle: saline) is listed as 6 of 10 on day 14.

Take `COc1ccc(-n2c(CSc3ccc(Cl)cc3)n[nH]c2=S)cc1`: the survivor count (dose: 600.0 mg/kg/injection, vehicle: saline with Tween-80) is listed as 10 of 10 on day 14.

Take `COC(C(=O)C(O)C(C)O)C1CC2C=C3C=C(OC4CC(OC5CC(O)C(OC)C(C)O5)C(OC(C)=O)C(C)O4)C(C)C(=O)C3=C(O)C2=C(O)C1OC1CC(OC2CC(OC3CC(C)(O)C(O)C(C)O3)C(O)C(C)O2)C(O)C(C)O1` (stereo unspecified): under “dose: 16.0 mg/kg/injection, vehicle: saline with Tween-80”, the T/C is 135 % of control [9 of 10 alive on day 14]. Also, the survivor count runs as follows: (dose: 32.0 mg/kg/injection, vehicle: saline with Tween-80) 4 of 10 on day 14; (dose: 64.0 mg/kg/injection, vehicle: saline with Tween-80) 0 of 10 on day 14; (dose: 128.0 mg/kg/injection, vehicle: saline with Tween-80) 0 of 10 on day 14; (dose: 256.0 mg/kg/injection, vehicle: saline with Tween-80) 0 of 10 on day 14.

In the case of `N#CC1C(=O)NC(=S)NC1c1ccccc1` (stereo unspecified), the survivor count under setting [6] is 2 of 10 on day 14.

Regarding `C=C(C)/C([O-])=N/[N+](C)(C)CC(O)CCCCCCCCCCCC` (stereo unspecified), the survivor count under setting [10] was 9 of 10 on day 14.

In the case of `O=[N+]([O-])c1c(O)c(CNCCCO)cc(CNCCCO)c1O`, the survivor count under setting [9] is given as 6 of 10 on day 14.

As to `CN(C)C(=O)Nc1ccc(Cl)cc1`, the survivor count (dose: 800.0 mg/kg/injection, vehicle: suspension in saline) was 0 of 10 on day 9 and 6 of 10 on day 9.

On to `CCN(CC)Cc1cc2[nH]c3c4ccc(Cl)cc4ncc3c2cc1OC` (tested in a mixture with another compound), for which the survivor count runs as follows: under setting [7], 4 of 10 on day 14; under setting [2], 3 of 10 on day 14; under setting [8], 0 of 10 on day 14; under setting [11], 0 of 10 on day 14.

Turning to `OC1(c2cccc(Cl)c2)C2=NCCCN2c2ccccc21` (stereo unspecified), under setting [1], the survivor count is 0 of 10 on day 14.

With `O=c1c2ccccc2c2nccn2c2ccccc12`, the survivor count runs as follows: under setting [5], 10 of 10 on day 14; under setting [1], 10 of 10 on day 14; under setting [2], 10 of 10 on day 14; under setting [11], 10 of 10 on day 14; under setting [3], 8 of 10 on day 14.
